Results published in article PMC3712822 (Pharmacotherapy, 2011).
Like-named read-outs stand apart in the source and are kept apart here.

Conditions: human, plasma, oral, AUC0–∞, median (IQR)

SMILES: CC(C)c1c(C(=O)Nc2ccccc2)c(-c2ccccc2)c(-c2ccc(F)cc2)n1CC[C@@H](O)C[C@@H](O)CC(=O)O [atorvastatin acid, atorvastatin, reference compound]
- AUC(0-inf) (20 mg, CYP3A5 expressors (n=10), atorvastatin only): 40.7 ng·h/mL
- AUC(0-inf) (20 mg, CYP3A5 nonexpressors (n=13), atorvastatin only): 38.6 ng·h/mL
- AUC(0-inf) (CYP3A5 expressors (n=10), atorvastatin + clarithromycin): 102 ng·h/mL
- AUC(0-inf) (CYP3A5 nonexpressors (n=13), atorvastatin + clarithromycin): 119 ng·h/mL
